Data as given in PubChem BioAssay AID1671195 (Yale University, 2021).
Assay: 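Regulators of LDL receptor activity judged by labelled LDL uptake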 (primary screen). Cells: human Huh7 hepatoma cells. Reagent: siRNA pool against human genes, 18 nM. Timing: about 2 to 2.5 days of knockdown, then 8 h LDL uptake. Treatment: DiI-labelled LDL at 30 µg/ml for 8 h, in lipoprotein-deficient serum medium. Read-out: 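Fluorescent LDL signal imaged in cells, scaled to the plate median, robust z-score for each replicate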. Direction: robust z-score: higher = more LDL uptake after knockdown. Call rule: 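a gene counts as active if at least two replicate z-scores exceed ±2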.
Shown is a random part of about 22,000 reagents. In the full data, about 1,510 (6.9%) are marked active. 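Active includes knockdowns raising or lowering LDL uptake; positive z-scores mean more uptake, negative mean less.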 Entries without a mark were called inactive.

NSF (GeneID 4905) | robust z-score, replicate 1 = 1.16; robust z-score, replicate 2 = 2.27; robust z-score, replicate 3 = 1.69
RPL18P9 (GeneID 100129645) | robust z-score, replicate 1 = -0.411; robust z-score, replicate 2 = -0.245; robust z-score, replicate 3 = 0.142
KCNS2 (GeneID 3788) | robust z-score, replicate 1 = -0.311; robust z-score, replicate 2 = 0.0481; robust z-score, replicate 3 = 0.872
LOC391692 (retired record) (GeneID 391692) | robust z-score, replicate 1 = 0.12; robust z-score, replicate 2 = -0.19; robust z-score, replicate 3 = -0.17
CENPA (GeneID 1058) | robust z-score, replicate 1 = -0.682; robust z-score, replicate 2 = -1.32; robust z-score, replicate 3 = -1.11
NDUFB10 (GeneID 4716) | robust z-score, replicate 1 = 0.0467; robust z-score, replicate 2 = -1.5; robust z-score, replicate 3 = -1.85
PLVAP (GeneID 83483) | robust z-score, replicate 1 = 1.95; robust z-score, replicate 2 = 0.493; robust z-score, replicate 3 = 1.17
MAPDA (GeneID 161823) | robust z-score, replicate 1 = -0.376; robust z-score, replicate 2 = -1.16; robust z-score, replicate 3 = -0.52
RDH14 (GeneID 57665) | robust z-score, replicate 1 = -1.01; robust z-score, replicate 2 = 0.174; robust z-score, replicate 3 = -0.979
FAM161A (GeneID 84140) | robust z-score, replicate 1 = -0.0917; robust z-score, replicate 2 = -0.148; robust z-score, replicate 3 = -0.249
FREM2 (GeneID 341640) | robust z-score, replicate 1 = 0.133; robust z-score, replicate 2 = -0.046; robust z-score, replicate 3 = 0.697
MEAF6 (GeneID 64769) | robust z-score, replicate 1 = -1.47; robust z-score, replicate 2 = -1.25; robust z-score, replicate 3 = -1.51
KRT10-AS1 (GeneID 147184) | robust z-score, replicate 1 = -1.31; robust z-score, replicate 2 = -0.982; robust z-score, replicate 3 = -1.25
TMEM131L (GeneID 23240) | robust z-score, replicate 1 = -1.47; robust z-score, replicate 2 = -1.01; robust z-score, replicate 3 = -1.71
DHODH (GeneID 1723) | robust z-score, replicate 1 = -0.214; robust z-score, replicate 2 = -0.571; robust z-score, replicate 3 = -0.748
UBE2D2 (GeneID 7322) | robust z-score, replicate 1 = 0.176; robust z-score, replicate 2 = 0.906; robust z-score, replicate 3 = -0.0291
UCP3 (GeneID 7352) | robust z-score, replicate 1 = -0.497; robust z-score, replicate 2 = 0.297; robust z-score, replicate 3 = -0.214
HNRNPA1P4 (GeneID 389674) | robust z-score, replicate 1 = 0.247; robust z-score, replicate 2 = 0.234; robust z-score, replicate 3 = 0.134
LOC389028 (retired record) (GeneID 389028) | robust z-score, replicate 1 = -0.127; robust z-score, replicate 2 = 0.165; robust z-score, replicate 3 = -0.385
SNX32 (GeneID 254122) | robust z-score, replicate 1 = -0.549; robust z-score, replicate 2 = -0.784; robust z-score, replicate 3 = -0.114
NEUROG3 (GeneID 50674) | robust z-score, replicate 1 = 0.404; robust z-score, replicate 2 = 0.516; robust z-score, replicate 3 = 3.1
LURAP1 (GeneID 541468) | robust z-score, replicate 1 = -1.48; robust z-score, replicate 2 = -1.3; robust z-score, replicate 3 = -1.41
STXBP5 (GeneID 134957) | robust z-score, replicate 1 = -1.38; robust z-score, replicate 2 = 0.00868; robust z-score, replicate 3 = 0.256
FOXP4 (GeneID 116113) | robust z-score, replicate 1 = 0.212; robust z-score, replicate 2 = 0.455; robust z-score, replicate 3 = 0.923

Part of the list above, showing only “robust z-score, replicate 3”.
LURAP1 (GeneID 541468) = -1.41
STXBP5 (GeneID 134957) = 0.256
FOXP4 (GeneID 116113) = 0.923
